Experimental data taken from PubChem BioAssay (NCATS).
The inconclusive results got no clear call from the source; some entries with a clear call stand among them for comparison. A potency beside an inconclusive call is a rough fit, not a confirmed value. The source made the active and inactive calls. The call rests on the fitted dose curve; in most records, active means well fitted curve in the direction sought with a large enough effect; inconclusive means small, poorly fitted or top-dose-only effect, or another doubt; inactive means no such curve, though single readings can be large; an effect the other way counts as inactive or inconclusive.

What was measured:
[1] = Quantitative High-Throughput drug screen in 47 multiple myeloma cell lines against the NCATS MIPE library collection: JIM1_ECACC cell viability assay (AID 1918964); settings: JIM1 myeloma viability, CellTiter-Glo ATP luminescence, 48 h; viability (% of DMSO): at 45.8 µM (top of the series)
In short: (§1)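 Myeloma cells (500 per well) were exposed to MIPE 4.0 compounds by pin transfer and incubated 48 hours at 37C, 5% CO2. Viability was read as ATP by CellTiter-Glo luminescence, normalised to DMSO (100%) and media-only (0%) wells.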

[2] = Quantitative High-Throughput drug screen in 47 multiple myeloma cell lines against the NCATS MIPE library collection: JJN3_DSMZ cell viability assay (AID 1918966; further: nearly all actives have a fitted effect of over 50% in size); settings: JJN3 myeloma cells viability, CellTiter-Glo ATP, 48 h; viability, % of DMSO: at 45.8 µM (top of the series)
In short: as §1

[3] = Quantitative High-Throughput drug screen in 47 multiple myeloma cell lines against the NCATS MIPE library collection: Karpas25_ECACC cell viability assay (AID 1918968; further: nearly all actives have a fitted effect of over 35% in size); settings: Karpas25 myeloma viability, CellTiter-Glo ATP, 48 h; viability (% of control): at 45.8 µM (top of the series)
In short: as §1

[4] = Quantitative High-Throughput drug screen in 47 multiple myeloma cell lines against the NCATS MIPE library collection: KMS12BM_JCRB cell viability assay (AID 1918971); further: nearly all actives have a fitted effect of over 35% in size
In short: as §1

[5] = Quantitative High-Throughput drug screen in 47 multiple myeloma cell lines against the NCATS MIPE library collection: KMS20_JCRB cell viability assay (AID 1918973); settings: CellTiter-Glo ATP, 48 h; viability (% of DMSO): at 45.8 µM (top of the series); further: nearly all actives have a fitted effect of over 45% in size
In short: as §1

[6] = Quantitative High-Throughput drug screen in 47 multiple myeloma cell lines against the NCATS MIPE library collection: KMS21BM_JCRB cell viability assay (AID 1918974); settings: ATP luminescence, 48 h; viability: at 45.8 µM (top of the series) unless noted
In short: as §1

[7] = Quantitative High-Throughput drug screen in 47 multiple myeloma cell lines against the NCATS MIPE library collection: KMS26_JCRB cell viability assay (AID 1918975); settings: KMS26 myeloma cells viability, CellTiter-Glo ATP, 48 h; viability (% of DMSO): at 45.8 µM (top of the series); further: nearly all actives have a fitted effect of over 45% in size
In short: as §1

[8] = Quantitative High-Throughput drug screen in 47 multiple myeloma cell lines against the NCATS MIPE library collection: MMM1_PLB cell viability assay (AID 1918976); further: nearly all actives have a fitted effect of over 35% in size
In short: (§2)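 500 cells/well; MIPE 4.0 drugs pin-transferred; 48 h, 37C, 5% CO2. CellTiter-Glo, 5 min RT, luminescence. Controls: DMSO 100%, media 0%.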

[9] = Quantitative High-Throughput drug screen in 47 multiple myeloma cell lines against the NCATS MIPE library collection: MM1S_ATCC cell viability assay (AID 1918980); further: nearly all actives have a fitted effect of over 45% in size
In short: as §2

[10] = Quantitative High-Throughput drug screen in 47 multiple myeloma cell lines against the NCATS MIPE library collection: MM1R_ATCC cell viability assay (AID 1918981); further: nearly all actives have a fitted effect of over 35% in size
In short: as §2

[11] = Quantitative High-Throughput drug screen in 47 multiple myeloma cell lines against the NCATS MIPE library collection: LP1_DSMZ cell viability assay (AID 1918982); further: nearly all actives have a fitted effect of over 35% in size
In short: as §2

[12] = Quantitative High-Throughput drug screen in 47 multiple myeloma cell lines against the NCATS MIPE library collection: KMS28PE_JCRB cell viability assay (AID 1918983); further: nearly all actives have a fitted effect of over 35% in size
In short: as §2

[13] = Quantitative High-Throughput drug screen in 47 multiple myeloma cell lines against the NCATS MIPE library collection: MOLP8_DSMZ cell viability assay (AID 1918977); settings: MOLP8 myeloma viability, CellTiter-Glo ATP luminescence, 48 h; viability (% of control): at 45.8 µM (top of the series); further: nearly all actives have a fitted effect of over 45% in size
In short: as §2

[14] = Quantitative High-Throughput drug screen in 47 multiple myeloma cell lines against the NCATS MIPE library collection: NCIH929_DSMZ cell viability assay (AID 1918978); further: nearly all actives have a fitted effect of over 35% in size
In short: as §2

[15] = Quantitative High-Throughput drug screen in 47 multiple myeloma cell lines against the NCATS MIPE library collection: KMS27_JCRB cell viability assay (AID 1918970); settings: KMS27 myeloma cells, CellTiter-Glo ATP viability, 48 h; viability (% of DMSO): at 45.8 µM (top of the series); further: nearly all actives have a fitted effect of over 30% in size
In short: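 Viability inhibition screen, 48 h compound exposure, luminescent ATP read-out.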

[16] = Quantitative High-Throughput drug screen in 47 multiple myeloma cell lines against the NCATS MIPE library collection: H1112_PLB cell viability assay (AID 1918967; further: nearly all actives have a fitted effect of over 30% in size); settings: H1112 myeloma cells viability, ATP luminescence, 48 h; viability: at 45.8 µM (top of the series)
In short: as §1

[17] = Quantitative High-Throughput drug screen in 47 multiple myeloma cell lines against the NCATS MIPE library collection: OCIMY1_PLB cell viability assay (AID 1918979); further: nearly all actives have a fitted effect of over 35% in size
In short: as §2

[18] = Quantitative High-Throughput drug screen in 47 multiple myeloma cell lines against the NCATS MIPE library collection: KMS12PE_JCRB cell viability assay (AID 1918972); settings: KMS12PE myeloma viability, CellTiter-Glo ATP, 48 h; viability: at 45.8 µM (top of the series); further: nearly all actives have a fitted effect of over 30% in size
In short: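 CellTiter-Glo luminescence (ATP) after 48 h compound exposure, 37C/5% CO2; 500 cells/well; MIPE 4.0 approved/investigational drugs pinned in; DMSO = 100%, media only = 0% viability.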
Potency means the concentration at half of the fitted maximal effect.

CC(C)n1c(C=C[C@H](O)C[C@H](O)CC(=O)O)c(-c2ccc(F)cc2)c2ccccc21
inconclusive: Potency [4] 14.8 µM [cytotoxic, partial curve, poor fit] | Potency [7] 29.6 µM [cytotoxic, partial curve, poor fit] | Potency [8] 14.8 µM [cytotoxic, partial curve, poor fit] | Potency [9] 5.26 µM [cytotoxic, partial curve] | Potency [10] 10.5 µM [cytotoxic, partial curve] | Potency [11] 11.8 µM [cytotoxic, full curve] | Potency [12] 23.5 µM [cytotoxic, single point]
inactive: Potency [2]
active: Potency [1] 7.43 µM | Potency [3] 14.8 µM | Potency [5] 20.9 µM | Potency [6] 29.6 µM

CCCCCCCCCCCC1=C(O)C(=O)C=C(O)C1=O
inconclusive: Potency [2] 0.0166 µM [rising, full curve, poor fit] | Potency [5] 7.43 µM [cytotoxic, partial curve, poor fit] | Potency [6] 0.418 µM [cytotoxic, full curve, poor fit] | Potency [7] 0.372 µM [rising, full curve, poor fit] | Potency [8] 0.0118 µM [rising, full curve, poor fit] | Potency [13] 20.9 µM [cytotoxic, partial curve, poor fit] | Potency [14] 3.72 µM [cytotoxic, full curve, poor fit] | Potency [9] 2.96 µM [cytotoxic, full curve, poor fit] | Potency [10] 33.2 µM [cytotoxic, single point] | Potency [11] 18.7 µM [cytotoxic, partial curve, poor fit] | Potency [12] 33.2 µM [cytotoxic, single point]
active: Potency [1] 0.59 µM

O=c1cc(-c2cccc3c2Sc2ccccc2S3)oc(N2CCOCC2)c1
active: Potency [1] 16.6 µM | Potency [4] 23.5 µM | Potency [5] 13.2 µM
inconclusive: Potency [2] 37.2 µM [cytotoxic, single point] | Potency [7] 33.2 µM [cytotoxic, single point] | Potency [8] 37.2 µM [cytotoxic, single point] | Potency [13] 18.7 µM [cytotoxic, partial curve, poor fit] | Potency [11] 13.2 µM [cytotoxic, partial curve] | Potency [12] 33.2 µM [cytotoxic, single point]

NC1=N[C@@]2(c3cc(NC(=O)c4ccc(F)cn4)ccc3F)COC[C@@H]2CS1
inactive: Potency [4] | Potency [12]
inconclusive: Potency [2] 33.2 µM [cytotoxic, single point] | Potency [5] 0.0066 µM [cytotoxic, full curve, poor fit] | Potency [8] 0.0662 µM [rising, full curve, poor fit] | Potency [13] 37.2 µM [cytotoxic, single point] | Potency [14] 23.5 µM [cytotoxic, single point] | Potency [9] 9.35 µM [cytotoxic, full curve] | Potency [10] 33.2 µM [cytotoxic, single point] | Potency [11] 0.001 µM [cytotoxic]
active: Potency [1] 0.935 µM | Potency [15] 0.264 µM

Cc1cc(C2CCCCC2)n(O)c(=O)c1
inconclusive: Potency [6] 9.35 µM [cytotoxic, full curve, poor fit] | Potency [12] 5.9 µM [cytotoxic, partial curve, poor fit]
active: Potency [1] 3.32 µM | Potency [16] 13.2 µM | Potency [5] 11.8 µM | Potency [13] 4.18 µM | Potency [17] 16.6 µM | Potency [11] 14.8 µM

COc1cc(N2CCC(N3CCN(C)CC3)CC2)ccc1Nc1ncnc(Nc2ccccc2S(=O)(=O)C(C)C)n1
inactive: Potency [1] | Potency [6]
inconclusive: Potency [16] 16.6 µM [cytotoxic, partial curve, poor fit] | Potency [3] 7.43 µM [cytotoxic, full curve, poor fit] | Potency [15] 0.0012 µM [rising, full curve, poor fit] | Potency [5] 8.33 µM [cytotoxic, partial curve, poor fit] | Potency [7] 18.7 µM [cytotoxic, partial curve, poor fit] | Potency [8] 10.5 µM [cytotoxic, full curve, poor fit] | Potency [13] 18.7 µM [cytotoxic, partial curve, poor fit] | Potency [14] 9.35 µM [cytotoxic, partial curve, poor fit] | Potency [17] 0.105 µM [rising, full curve, poor fit] | Potency [9] 14.8 µM [cytotoxic, partial curve, poor fit] | Potency [10] 20.9 µM [cytotoxic, partial curve, poor fit] | Potency [11] 16.6 µM [cytotoxic, partial curve, poor fit] | Potency [12] 18.7 µM [cytotoxic, partial curve, poor fit]

CCCCCCCCCCCC(CC1OC(=O)C1CCCCCC)OC(=O)C(CC(C)C)NC=O (configuration not stated)
inactive: Potency [1] | Potency [9]
active: Potency [12] 26.4 µM
inconclusive: Potency [18] 0.001 µM | Potency [7] 13.2 µM [cytotoxic, partial curve, poor fit] | Potency [13] 20.9 µM [cytotoxic, partial curve] | Potency [10] 23.5 µM [cytotoxic, partial curve]

C[C@@]1(C(=O)Nc2ccc(F)nc2)CCCN1c1nc(Nc2cc(C3CC3)[nH]n2)c2cccn2n1
active: Potency [7] 0.0066 µM | Potency [8] 0.0209 µM | Potency [9] 0.0469 µM
inconclusive: viability (% of DMSO) [1] 26.5% [cytotoxic] | Potency [16] 0.059 µM [cytotoxic, full curve, poor fit] | Potency [17] 0.0074 µM [cytotoxic, full curve] | Potency [11] 0.0074 µM [cytotoxic, full curve]

Cc1cccc(-c2[nH]c(C(C)(C)C)nc2-c2ccc3nccnc3c2)n1
active: Potency [1] 6.62 µM
inconclusive: Potency [5] 2.09 µM [cytotoxic, full curve, poor fit] | Potency [6] 33.2 µM [cytotoxic, partial curve, poor fit] | Potency [7] 20.9 µM [cytotoxic, partial curve, poor fit] | Potency [8] 14.8 µM [cytotoxic, partial curve, poor fit] | Potency [13] 16.6 µM [cytotoxic, partial curve, poor fit] | Potency [17] 29.6 µM [cytotoxic, single point] | Potency [9] 29.6 µM [cytotoxic, single point] | Potency [11] 0.001 µM | Potency [12] 23.5 µM [cytotoxic, single point]

2 compounds drawn at random from those above, as already listed:
Cc1cc(C2CCCCC2)n(O)c(=O)c1
inconclusive: Potency [6] 9.35 µM [cytotoxic, full curve, poor fit] | Potency [12] 5.9 µM [cytotoxic, partial curve, poor fit]
active: Potency [1] 3.32 µM | Potency [16] 13.2 µM | Potency [5] 11.8 µM | Potency [13] 4.18 µM | Potency [17] 16.6 µM | Potency [11] 14.8 µM

CCCCCCCCCCCC(CC1OC(=O)C1CCCCCC)OC(=O)C(CC(C)C)NC=O (configuration not stated)
inactive: Potency [1] | Potency [9]
active: Potency [12] 26.4 µM
inconclusive: Potency [18] 0.001 µM | Potency [7] 13.2 µM [cytotoxic, partial curve, poor fit] | Potency [13] 20.9 µM [cytotoxic, partial curve] | Potency [10] 23.5 µM [cytotoxic, partial curve]

(listing goes on)

O=C(Nc1cc(Cl)cc2c1[nH]c1cnccc12)c1cccnc1
inactive: Potency [17]
active: Potency [8] 11.8 µM
inconclusive: Potency [1] 0.0019 µM [rising, full curve, poor fit] | Potency [2] 33.2 µM [cytotoxic, single point] | Potency [5] 1.48 µM [cytotoxic, partial curve, poor fit] | Potency [6] 1.48 µM [rising, full curve] | Potency [13] 2.09 µM [cytotoxic, full curve, poor fit]

Cc1cccc2c1CC[C@H](CN1CCC(c3c(Cl)cccc3Cl)CC1)C[C@@H]2O
active: Potency [5] 20.9 µM
inconclusive: Potency [1] 6.62 µM [cytotoxic, full curve] | Potency [16] 23.5 µM [cytotoxic, partial curve] | Potency [15] 10.5 µM [cytotoxic, partial curve] | Potency [18] 7.43 µM [cytotoxic, partial curve] | Potency [7] 2.64 µM [cytotoxic, partial curve] | Potency [13] 0.187 µM [cytotoxic, full curve, poor fit] | Potency [14] 23.5 µM [cytotoxic, partial curve] | Potency [17] 7.43 µM [cytotoxic, full curve, poor fit] | Potency [9] 18.7 µM [cytotoxic, partial curve] | Potency [10] 16.6 µM [cytotoxic, partial curve] | Potency [11] 13.2 µM [cytotoxic, partial curve] | Potency [12] 5.26 µM [cytotoxic, partial curve]

O=C(O)c1c(Cl)c(Cl)c(Cl)c(Cl)c1-c1c2cc(I)c(=O)c(I)c-2oc2c(I)c(O)c(I)cc12
active: Potency [1] 2.35 µM | Potency [18] 10.5 µM
inconclusive: Potency [15] 16.6 µM [cytotoxic, partial curve, poor fit] | Potency [4] 10.5 µM [cytotoxic, partial curve] | Potency [5] 5.9 µM [cytotoxic, partial curve, poor fit] | Potency [7] 16.6 µM [cytotoxic, partial curve] | Potency [8] 13.2 µM [cytotoxic, partial curve, poor fit] | Potency [13] 14.8 µM [cytotoxic, partial curve] | Potency [17] 14.8 µM [cytotoxic, partial curve, poor fit] | Potency [11] 18.7 µM [cytotoxic, partial curve, poor fit]
